{"source": "PubChem BioAssay AID504774 (Drosophila RNAi Screening Center, 2011)", "screen": "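Fly genes whose loss alters survival after alkylation damage to DNA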 (primary screen)", "cell system": "Drosophila Kc167 cells", "reagents": "long dsRNA against Drosophila genes, about 0.25 µg dsRNA per well", "duration": "about 6 days: 3 days knock-down, then 3 days with or without MMS", "challenge": "methyl methanesulphonate 0.004% (w/v) for 3 days after knock-down", "detection": "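ATP-dependent luminescence as a measure of live cells in MMS-exposed wells, quantile normalised within each plate, with replicate values also given as a mean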", "scale": "mean viability with MMS and viability with MMS: higher = more surviving cells after MMS", "note": "The screen tested about 23,000 reagents; shown is a random part of those with a known target gene and a result. 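Values are quantile-normalised luminescence on an arbitrary scale; higher means more cells surviving MMS.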 Further read-outs or replicates are left out here. Reagent sequences are not shown."}
{"gene knocked down": "jbug (jitterbug)", "dsRNA": "DRSC03952", "mean viability with MMS": 3.47e6, "viability with MMS, replicate 1": 4.00e6}
{"gene knocked down": "jbug (jitterbug)", "dsRNA": "DRSC04114", "mean viability with MMS": 3.56e6, "viability with MMS, replicate 1": 4.06e6}
{"gene knocked down": "jbug (jitterbug)", "dsRNA": "DRSC04167", "mean viability with MMS": 3.77e6, "viability with MMS, replicate 1": 3.83e6}
{"gene knocked down": "jbug (jitterbug)", "dsRNA": "DRSC04388", "mean viability with MMS": 3.61e6, "viability with MMS, replicate 1": 3.99e6}
{"gene knocked down": "Ack (Activated Cdc42 kinase)", "dsRNA": "DRSC08135", "mean viability with MMS": 3.48e6, "viability with MMS, replicate 1": 3.98e6}
{"gene knocked down": "CG12239", "dsRNA": "DRSC17832", "mean viability with MMS": 2.93e6, "viability with MMS, replicate 1": 3.63e6}
{"gene knocked down": "CG7724", "dsRNA": "DRSC10905", "mean viability with MMS": 3.61e6, "viability with MMS, replicate 1": 4.13e6}
{"gene knocked down": "how (held out wings)", "dsRNA": "DRSC16966", "mean viability with MMS": 3.10e6, "viability with MMS, replicate 1": 3.64e6}
{"gene knocked down": "CG18131", "dsRNA": "DRSC00517", "mean viability with MMS": 3.07e6, "viability with MMS, replicate 1": 3.53e6}
{"gene knocked down": "CG18131", "dsRNA": "DRSC22983", "mean viability with MMS": 3.57e6, "viability with MMS, replicate 1": 4.01e6}
{"gene knocked down": "ND-49 (NADH dehydrogenase (ubiquinone) 49 kDa subunit)", "dsRNA": "DRSC17151", "mean viability with MMS": 3.43e6, "viability with MMS, replicate 1": 3.95e6}
{"gene knocked down": "CG14565", "dsRNA": "DRSC11726", "mean viability with MMS": 3.79e6, "viability with MMS, replicate 1": 4.22e6}
{"gene knocked down": "Bfc (Booster for Crq)", "dsRNA": "DRSC08623", "mean viability with MMS": 3.60e6, "viability with MMS, replicate 1": 4.07e6}
{"gene knocked down": "CG31091", "dsRNA": "DRSC15933", "mean viability with MMS": 3.62e6, "viability with MMS, replicate 1": 4.05e6}
{"gene knocked down": "Mybbp1A (MYB binding protein 1a)", "dsRNA": "DRSC18788", "mean viability with MMS": 3.53e6, "viability with MMS, replicate 1": 4.10e6}
{"gene knocked down": "tou (toutatis)", "dsRNA": "DRSC06006", "mean viability with MMS": 3.94e6, "viability with MMS, replicate 1": 4.37e6}
{"gene knocked down": "tou (toutatis)", "dsRNA": "DRSC22710", "mean viability with MMS": 3.11e6, "viability with MMS, replicate 1": 3.78e6}
{"gene knocked down": "CG8997", "dsRNA": "DRSC01900", "mean viability with MMS": 3.52e6, "viability with MMS, replicate 1": 4.04e6}
{"gene knocked down": "CG33257", "dsRNA": "DRSC09917", "mean viability with MMS": 3.60e6, "viability with MMS, replicate 1": 4.06e6}

Continued; the last 5 above are carried over.
{"gene knocked down": "Mybbp1A (MYB binding protein 1a)", "dsRNA": "DRSC18788", "mean viability with MMS": 3.53e6, "viability with MMS, replicate 1": 4.10e6}
{"gene knocked down": "tou (toutatis)", "dsRNA": "DRSC06006", "mean viability with MMS": 3.94e6, "viability with MMS, replicate 1": 4.37e6}
{"gene knocked down": "tou (toutatis)", "dsRNA": "DRSC22710", "mean viability with MMS": 3.11e6, "viability with MMS, replicate 1": 3.78e6}
{"gene knocked down": "CG8997", "dsRNA": "DRSC01900", "mean viability with MMS": 3.52e6, "viability with MMS, replicate 1": 4.04e6}
{"gene knocked down": "CG33257", "dsRNA": "DRSC09917", "mean viability with MMS": 3.60e6, "viability with MMS, replicate 1": 4.06e6}
{"gene knocked down": "CG3942", "dsRNA": "DRSC15525", "mean viability with MMS": 3.73e6, "viability with MMS, replicate 1": 4.18e6}
{"gene knocked down": "CG17283", "dsRNA": "DRSC15219", "mean viability with MMS": 3.40e6, "viability with MMS, replicate 1": 3.93e6}
{"gene knocked down": "CG18518", "dsRNA": "DRSC01509", "mean viability with MMS": 3.58e6, "viability with MMS, replicate 1": 4.14e6}
{"gene knocked down": "Csp (Cysteine string protein)", "dsRNA": "DRSC11860", "mean viability with MMS": 3.66e6, "viability with MMS, replicate 1": 4.05e6}
{"gene knocked down": "CG6230", "dsRNA": "DRSC01989", "mean viability with MMS": 3.52e6, "viability with MMS, replicate 1": 4.08e6}
{"gene knocked down": "Ggamma1 (G protein gamma subunit 1)", "dsRNA": "DRSC07435", "mean viability with MMS": 3.50e6, "viability with MMS, replicate 1": 3.93e6}
{"gene knocked down": "CG34236", "dsRNA": "DRSC05435", "mean viability with MMS": 3.46e6, "viability with MMS, replicate 1": 3.96e6}
{"gene knocked down": "Gpxl (Glutathione peroxidase-like)", "dsRNA": "DRSC06538", "mean viability with MMS": 3.51e6, "viability with MMS, replicate 1": 3.99e6}
{"gene knocked down": "Ugt302K1 (UDP-glycosyltransferase family 302 member K1)", "dsRNA": "DRSC16086", "mean viability with MMS": 3.55e6, "viability with MMS, replicate 1": 4.08e6}
{"gene knocked down": "RhoGEF4 (Rho guanine nucleotide exchange factor 4)", "dsRNA": "DRSC11011", "mean viability with MMS": 3.66e6, "viability with MMS, replicate 1": 3.97e6}
{"gene knocked down": "CG13590", "dsRNA": "DRSC04226", "mean viability with MMS": 3.65e6, "viability with MMS, replicate 1": 3.93e6}
{"gene knocked down": "Elk (Eag-like K[+] channel)", "dsRNA": "DRSC07608", "mean viability with MMS": 3.46e6, "viability with MMS, replicate 1": 3.89e6}
{"gene knocked down": "CG14631", "dsRNA": "DRSC17792", "mean viability with MMS": 3.69e6, "viability with MMS, replicate 1": 4.17e6}
{"gene knocked down": "CG14631", "dsRNA": "DRSC17941", "mean viability with MMS": 3.67e6, "viability with MMS, replicate 1": 4.17e6}
{"gene knocked down": "Pos (Poseidon)", "dsRNA": "DRSC15415", "mean viability with MMS": 3.62e6, "viability with MMS, replicate 1": 4.21e6}
{"gene knocked down": "Cpr11B (Cuticular protein 11B)", "dsRNA": "DRSC19859", "mean viability with MMS": 3.50e6, "viability with MMS, replicate 1": 3.80e6}
